This passage reports binding results from patent US20140199315A1 (Biogen, published 2014).

Amino acid sequences for entries named in this document (tags omitted). A change or cut given only in a name is not applied to a line headed by its entry. Chains listed by the source or under a name are the forms on record and can include a tag or linker. Residues count along the entry.
UniProt Q9D1T0: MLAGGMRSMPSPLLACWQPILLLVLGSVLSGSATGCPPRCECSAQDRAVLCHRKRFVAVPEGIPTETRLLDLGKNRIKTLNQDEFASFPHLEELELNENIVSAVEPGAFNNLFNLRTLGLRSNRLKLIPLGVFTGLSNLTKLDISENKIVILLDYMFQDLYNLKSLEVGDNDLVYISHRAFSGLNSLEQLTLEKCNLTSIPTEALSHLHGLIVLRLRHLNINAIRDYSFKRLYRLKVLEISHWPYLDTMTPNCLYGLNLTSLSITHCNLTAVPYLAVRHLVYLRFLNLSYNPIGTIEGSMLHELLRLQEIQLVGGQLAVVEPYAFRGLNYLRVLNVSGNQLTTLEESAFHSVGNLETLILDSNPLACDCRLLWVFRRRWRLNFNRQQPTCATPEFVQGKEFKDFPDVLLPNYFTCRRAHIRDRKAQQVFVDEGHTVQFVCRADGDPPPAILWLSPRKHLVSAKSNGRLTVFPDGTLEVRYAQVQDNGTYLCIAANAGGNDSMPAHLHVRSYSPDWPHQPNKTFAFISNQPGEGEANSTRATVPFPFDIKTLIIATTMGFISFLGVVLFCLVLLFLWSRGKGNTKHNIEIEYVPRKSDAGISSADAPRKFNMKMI
full-length murine Sp35 with HA tag, from lysate of transfected cells: residues 34-614 of Q9D1T0
mouse Sp35 protein (form in the assay not stated): residues 36-532 of Q9D1T0
UniProt Q96FE5: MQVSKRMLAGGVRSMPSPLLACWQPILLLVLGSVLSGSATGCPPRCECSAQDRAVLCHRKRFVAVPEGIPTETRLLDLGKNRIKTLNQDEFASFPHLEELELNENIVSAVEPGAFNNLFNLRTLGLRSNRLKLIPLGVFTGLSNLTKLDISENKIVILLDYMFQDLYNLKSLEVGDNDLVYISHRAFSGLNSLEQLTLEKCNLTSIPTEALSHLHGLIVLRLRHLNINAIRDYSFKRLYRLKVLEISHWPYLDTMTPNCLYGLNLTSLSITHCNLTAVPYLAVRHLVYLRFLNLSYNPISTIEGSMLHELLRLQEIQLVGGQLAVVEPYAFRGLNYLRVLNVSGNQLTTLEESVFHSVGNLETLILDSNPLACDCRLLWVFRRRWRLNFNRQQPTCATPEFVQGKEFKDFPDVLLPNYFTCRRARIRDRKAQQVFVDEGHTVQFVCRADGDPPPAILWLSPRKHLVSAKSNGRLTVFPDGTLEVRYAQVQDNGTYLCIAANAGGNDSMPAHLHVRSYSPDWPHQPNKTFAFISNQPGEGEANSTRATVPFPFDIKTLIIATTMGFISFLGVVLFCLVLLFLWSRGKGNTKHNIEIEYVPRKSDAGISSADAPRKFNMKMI
UniProt Q5RDJ4: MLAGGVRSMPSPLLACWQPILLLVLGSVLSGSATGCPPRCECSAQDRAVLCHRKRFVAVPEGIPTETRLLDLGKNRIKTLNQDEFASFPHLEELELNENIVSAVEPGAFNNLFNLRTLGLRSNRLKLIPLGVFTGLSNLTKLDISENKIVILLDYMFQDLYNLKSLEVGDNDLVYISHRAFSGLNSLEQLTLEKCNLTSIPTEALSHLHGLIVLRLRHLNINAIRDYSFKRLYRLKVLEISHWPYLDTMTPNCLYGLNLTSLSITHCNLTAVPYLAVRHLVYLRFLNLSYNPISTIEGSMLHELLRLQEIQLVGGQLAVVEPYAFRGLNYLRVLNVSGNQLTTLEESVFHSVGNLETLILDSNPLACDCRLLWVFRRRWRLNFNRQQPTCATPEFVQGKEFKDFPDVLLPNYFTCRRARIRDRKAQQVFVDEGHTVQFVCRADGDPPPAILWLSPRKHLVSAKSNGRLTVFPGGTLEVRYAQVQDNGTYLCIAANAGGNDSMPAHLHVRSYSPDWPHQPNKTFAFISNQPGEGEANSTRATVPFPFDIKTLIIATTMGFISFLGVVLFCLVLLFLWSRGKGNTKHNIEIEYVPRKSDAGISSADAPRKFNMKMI

Assay [1] has as its target full-length murine Sp35 with HA tag, from lysate of transfected cells (mouse) (UniProt Q9D1T0). In words: immunoprecipitation.
In assay [2] the target is Sp35-Fc fusion protein (human Sp35 residues 1-532 fused to hinge and Fc of human IgG1) (human) (UniProt Q96FE5). In words: immunoprecipitation.
In assay [3] the target is full-length human Sp35 with N-terminal hemagglutinin (HA) tag, from lysate of transfected COS-1 cells (human) (UniProt Q96FE5). As to the kind of experiment: immunoprecipitation.
In assay [4] the target is human Sp35 protein expressed on transfected cells (human) (UniProt Q96FE5). In words: FACS. For orientation: In flow cytometry, cells or beads pass a laser one at a time.
The target in assay [5] is AP-Sp35 (1-419) (Pongo abelii (Sumatran orangutan) (Pongo pygmaeus abelii)) (UniProt Q5RDJ4). As to the kind of experiment: binding to Sp35 fragment.
Assay [6] deals with Sp35 fragment 34-417 (ELISA column of Table 3B) (Homo sapiens (Human)) (UniProt Q96FE5). In words: ELISA, truncated Sp35-Fc. Background: ELISA stands for enzyme-linked immunosorbent assay.
Assay [7] addresses human Sp35 protein (form in the assay not stated) (human) (UniProt Q96FE5). As to the kind of experiment: Western blot.
In assay [8] the target is mouse Sp35 protein (form in the assay not stated) (mouse) (UniProt Q9D1T0). As to the kind of experiment: Western blot. On the technique in general: In western blotting, separated proteins are transferred to a membrane and probed.
For assay [9], the target named is Sp35 fragment 34-417 (ELISA column of Table 3B) (Homo sapiens (Human)) (UniProt Q96FE5). As to the kind of experiment: ELISA.

Numbering of substitutions follows the chain as printed. Results are given in words; binding and its absence hold for the method and conditions named. Some results given as binding are weak or reduced against the parent protein; the word gives no strength.

B1: 34-G04 (Li08) (Fab, V domains shown)
VH: EVQLLESGGGLVQPGGSLRLSCAASGFTFSHYEMVWVRQAPGKGLEWVSSIRSSGGATKYADSVKGRFTISRDNSKNTLYLQMNSLRAEDTAVYYCAKESPDDYFDYWGQGTLVTVSS
VL: DIQMTQSPSSLSASVGDRVTITCQASQDISYYLNWYQQKPGKAPKVLIYDVSNLQTGVPSRFSGSASATDFTLTISSLQPEDIATYYCQQSDNLPLTFGGGTKVEIKR
As to B1, the binding result in assay [1], in assay [2] and in [3] was “binds” each time.

B2: D08 (Li08 Variable Region) (antibody, V domains shown)
VH: B1 VH
VL: B1 VL
As to B2, the binding result in assay [4] was “binds”.

B3: 30-A11 (Li05) (Fab, V domains shown)
VH: EVQLLESGGGLVQPGGSLRLSCAASGFTFSAYAMGWVRQAPGKGLEWVSSIVSSGGYTDYADSVKGRFTISRDNSKNTLYLQMNSLRAEDTAVYYCAREGDHNAFDIWGQGTMVTVSS
VL: QSVLTQPPSVSVAPGQTARISCGGDNIGSKSVHWYQQRPGQAPVLVVYDDYDRPSGIPERFSGSNSGDTAILTITRVEVGDEADFYCQVRDSRTEERVFGGGTKVTVLG
Consider B3, for which the binding result in [4], in assay [1], in assay [2] and in assay [3] was “binds” each time.

B4: 34-F02 (Li06) (Fab, V domains shown)
VH: B3 VH with A31E, A33P, G35D, V52Y, Y57S, D59V, V64I, H102S, N103D
VL: DIQMTQSPSTLSASVGDRVTITCRASQSISSWLAWYQQKPGKAPNLLIYAASSLRTGVPSRFRGSGSGTDFTLTISSLQPEDFATYYCLQDYSYPLTFGQGTKLEIKR
Turning to B4, the binding result in assay [1] and in assay [3] was “binds” throughout.

B5: D05 (Li05 Variable Region) (antibody, V domains shown)
VH: B3 VH
VL: B3 VL
For the molecule B5, the binding result in assay [4] and in [5] was “binds” in each case.

B6: 30-B01 (Li11) (Fab, V domains shown)
VH: EVQLLESGGGLVQPGGSLRLSCAASGFTFSSYAMYWVRQAPGKGLEWVSSISTSGGYTGYADSVKGRFTISRDNSKNTLYLQMNSLRAEDTAVYYCARDTSDNDYYYMDVWGKGTTVTVSS
VL: DIQMTQSPSSVSAPIGDRVTITCRASQEIANYLAWYQQKPGKAPKLLIYDTYTLQTDVPPRFSGSGSGTDFTLTISSLQPEDTATYFCQQADIFPLSFGGGTKVEIKR
With B6, the binding entry in assay [4], in assay [1] and in assay [3] was “binds” each time.

B7: 29-E07 (Li07) (Fab, V domains shown)
VH: EVQLLESGGGLVQPGGSLRLSCAASGFTFSMYFMGWVRQAPGKGLEWVSSISPSGGFTSYADSVKGRFTISRDNSKNTLYLQMNSLRAEDTAVYYCARDRHAFDIWGQGTMVTVSS
VL: QSELTQPPSVSVSPGQTAIITCSGDQLGDKHVAWYQQKPGQSPVLVIYLDIKRPAGISERFSGSNSGNTATLTIRGTQAMDEADYYCQAWDIKTVFGGGTKLTVLS
As to B7, the binding result in [1] and in [3] was “binds” throughout.

B8: D07 (antibody, V domains shown)
VH: B7 VH
VL: B7 VL
For B8, the binding result in assay [4] is on record as “binds”.

B9: D10 (antibody, V domains shown)
VH: EVQLLESGGGLVQPGGSLRLSCAASGFTFSTYPMVWVRQAPGKGLEWVSWIGPSGGVTAYADSVKGRFTISRDNSKNTLYLQMNSLRAEDTAVYYCARPYSSGWWDFDLWGRGTLVTVSS
VL: DIQMTQSPSSMSASVGDTVTITCRASQGIGNWLAWYQQKPGKAPTLLIYAASSLESGVPSRFTGSGSSSGIDFTLTISDLHPEDLATYYCQQAQTFPLTFGGGTRVDLKR
As for B9, the binding result in assay [4] is “binds”.

B10: 30-C12 (Li01) (Fab, V domains shown)
VH: EVQLLESGGGLVQPGGSLRLSCAASGFTFSKYQMTWVRQAPGKGLEWVSSIYPSGGNTVYADSVKGRFTISRDNSKNTLYLQMNSLRAEDTAVYYCASGTTEAVFDYWGQGTLVTVSS
VL: DIQMTQSPSSLSASVGDRVTITCQASQDISNYLNWYQQKPGKAPKLLIYDASNLETGVPSRFSGSGSGTDFTLTISSLQPEDFATYYCQQADRFPAVTFGGGTKVEIKR
On to B10, for which the binding result in assay [1] and in [3] was “binds” each time.

B11: 2F3 (antibody, V domains shown)
VH: EVKLEESGGGLVQPGGSMKLSCAASGFTFSDAWLDWVRQSPEKGLEWVAEIRSKANNHATNYAESVKGRFTISRDDSKSSVYLQMNSLRAEDTGIYFCTPSFAYWGQGTTVTVSS
VL: DIQMTQSPASLSASVGETVTITCRASGNIYNYLAWFQQKQGKSPQLLVYNAKTLPDGVPSRFSGSGSGTQYFLKINSLQPEDFGSYYCQHFWAIPYTFGGGTKLEIKR
notes: murine hybridoma monoclonal antibody; also called monoclonal antibody 2F3; MAb 2F3
B11: the binding result in [6], in [7], in [8] and in [9] was “binds” in each case.
